According to the supplement of paper PMC5949888:
Most values lie at the floor of the assay. Slopes are relative: functional sequences can read slightly below zero.

tested on: Saccharomyces cerevisiae PS128 hsf1 delta, HSF1(1-493) fusion; experiment: growth estimate (transactivation domain function in HSF1 fusion, heat-shock survival) (a.u. (slope of normalised read count over time)); higher = stronger growth at 37°C, i.e. more transactivation activity; conditions: library: random library

Substance | growth estimate
QINHRAVSSTDQKELLGDES | < -0.25
VVGF | < -0.25
QRTVHN | < -0.25
DPELLVTPCIAASGDMSVAM | < -0.25
AWCLTEVHYSSKFLPDMHHA | < -0.25
GRPLLWGMWRPRSNGSSVSY | < -0.25
KATHGLAM | < -0.25
PFDGICNLSLPQVGTKKLHR | < -0.25
FHTRSAGVQRRLRRITDRRE | < -0.25
SRAASSNDLFCGGHWTWLRC | < -0.25
RMEITLMEAYSE | < -0.25
GEGRYFGNVGAHAQVGAIVL | < -0.25
RSSFRPITVMFMTGKPMTLH | < -0.25
RGFY | < -0.25
CDALST | < -0.25
GSCGSKY | -0.246
QFGILLVLLVQEHIWTRTKH | < -0.25
IGRTMFTLGGTRRLRGGS | < -0.25
DRGSLEWKDGPERRI | < -0.25
HRTR | < -0.25
Child | < -0.25
LADSTAP | < -0.25
AQRRSEPHLDLSSHTELRFG | < -0.25
GRAVPRTASEPGHARAMSV | < -0.25
MPESVSGFVGGTGSVGATVP | < -0.25

Substance | growth estimate
LPGLLPGRYDLDRGRHAQVR | < -0.25
TTEGQPAQGERIKRDCPPPS | < -0.25
HEA | < -0.25
AASVLPCGR | < -0.25
QNVGWAYESSIRVNGRTAGS | < -0.25
GSTFSSRAYCVMTIRKAVSC | < -0.25
MHKIA | < -0.25
RNQKVPEVRRLRRRETCRKA | < -0.25
VIVVG | < -0.25
VRYEKCTDPSGAEVLGGTVF | < -0.25
SSHGVLRS | < -0.25
GVTIVGGTSGPTNVWSGLRC | < -0.25
SLGASVIQGGIRRRRDLRRA | < -0.25
SNGSRSWCVVSDKP | < -0.25
VYCPTES | < -0.25
LIPGPGVCCELGQNARYIAP | < -0.25
NYLKAIQSNEEGAEYTI | < -0.25
CVLWFSEQTMRYGAILLDDG | < -0.25
LARGRWPRVGHTLTHDRLIF | < -0.25
YEQKAGAWRVGVKSYVAVRR | < -0.25
VLTM | < -0.25
LRGRCYCFTRYILQP | < -0.25
RRTPREAEDLILRGSQRMQ | < -0.25
GGWTTELLYEVQRQGFGSGR | < -0.25
LMRSCV | < -0.25

Substance | growth estimate
VGLSANT | < -0.25
SFIPITPIDVSAINTVGEPS | < -0.25
WFWQRYRHKEST | -0.229
TGLILWLIYILWCASYLRRL | < -0.25
VGSLPMDSI | < -0.25
VFEAW | < -0.25
TQRFDRHRSSLLRPYLERCV | < -0.25
YNMIR | < -0.25
HMRPMNL | < -0.25
QIRWLGPLHYVSAQCTDRAR | < -0.25
LDTKVAL | < -0.25
LGSYRYELGRGCGNSFHSSL | < -0.25
TVASGNSVLRRGYTRSYL | < -0.25
ARCGLQSAVSIALVV | < -0.25
HHTLGVLEGDGALTTHHLLS | < -0.25
HIDNLYKSS | < -0.25
GPLPLPYQRISFI | < -0.25
IRETVSKNGSSLPPSPF | < -0.25
HVQRRATL | < -0.25
GSSVQNRRAVVSSLNVPHPV | -0.241
IAKASLARGMLVSLYGMDRG | < -0.25
LYWPAGRI | < -0.25
VGSGPHGSCSK | < -0.25
RIEKSRSRATLYLRQGLPGT | < -0.25
PTNRATNHGPVRKRHCRSDL | < -0.25

Substance | growth estimate
DTPLEAATLCDSKAKG | < -0.25
SLGMISKSSKGRDSEGTLPS | < -0.25
AVPLWDV | < -0.25
FGVYGTRYKHLPTPCVHRPI | < -0.25
CSFGRRYRGAVDCFSQGVRL | < -0.25
VYRLGNVSDAFPQ | -0.168
TRPRS | < -0.25
GTDLRLCVWNWFTHDTHSSA | < -0.25
DPTRRCG | 0.0329
NLLRDDSAERSQPRQFWTVR | -0.234
RKHRDPSIGWARPSHNPFTS | < -0.25
RDRLGIRGVGKKNSLG | < -0.25
LVGKMSPSSKVAKEKVRRLN | -0.243
SVWMYTASYGGWTYCNINKW | < -0.25
SKSGRRKPRGGGNPRSRLNA | < -0.25
ASKLS | < -0.25
QTTSRL | < -0.25
QLSNRVGGRAAHNLIWIYSV | < -0.25
YSTAGFWARAGQLSTHVLSV | < -0.25
RICSLGLNGRLAASERDQTS | < -0.25
RNCTHGC | < -0.25
DKRPPCKHRQCGKCTH | < -0.25
SELRYV | < -0.25
NTCPASDLGGPWPDQENWWI | < -0.25
FCRRTAVWPRPYGNWTRGAE | < -0.25

Substance | growth estimate
RLLTLVTRGDTSQSGDRRVA | < -0.25
CDRGRHLSQPTPFRIHMDAP | < -0.25
ESRYND | < -0.25
RDLGRC | < -0.25
QSAIGRVRLTS | < -0.25
FGRSLPEGSKAEFIEGQSSR | < -0.25
LYTSPCCRTYRSIQLIVPER | < -0.25
SQCGLLQKIYVHHCEHRCRS | < -0.25
SKSTARNRTTLDCLGACRVP | < -0.25
PTGSSWPQGGGVMADEPQVA | < -0.25
EVHRSL | < -0.25
ARKSEVKLRYGEGGSRSEHA | < -0.25
LAWVAAAFGCSWWQIATRNW | < -0.25
ITCGRKALGC | < -0.25
CVVTKQKYDSYTSQSNW | < -0.25
LIRLPTAMHSSGYCHGTLFY | < -0.25
VLGGTLSRTTVR | < -0.25
GLRSSGAICPTSGLSDGPPV | < -0.25
LVRSASL | < -0.25
LSNGSRNPSR | < -0.25
WYR | < -0.25
GSVT | < -0.25
IRLECSERSTI | < -0.25
TGQDALGGSPPYFRHLARRV | < -0.25
IEQAQAAASWPGPGELSDFW | -0.0395

Substance | growth estimate
NLLLFKRDPVQRKLRCG | < -0.25
ERGAIAFRRRIYVGQLCSRL | < -0.25
AHICQMVAGWKSILSIVTYM | < -0.25
GLCKQLRTISVYNNHAFTPN | < -0.25
VIGHGDLPHKARFDFSNSLH | < -0.25
QSRLAISV | < -0.25
VCVYATGEMTKY | < -0.25
GPRPRVAAIAGQEPYIRIRQ | < -0.25
TIVDFSLTLYGFTPITDSLG | < -0.25
LGSYG | < -0.25
RGIRAAQLLTRALYPIPCRR | < -0.25
ADGGTEINVRRGVCR | < -0.25
LPPMVSYYFIAG | < -0.25
SRVKTDVMGADNEAIATI | -0.0748
RWARTNSCRARQSKPFYVDS | < -0.25
RDEC | < -0.25
LGVVMSPAMRSPGGCGYLPK | < -0.25
EDDSICNKHGRVGST | < -0.25
DGMGPNSASSKAA | < -0.25
LLNSSRLCRE | < -0.25
SIRRPTEMH | < -0.25
GSL | < -0.25
HRRIMELECFSHAFTGPNSA | < -0.25
ICRLSMWCLRLFGEACGLKA | < -0.25
PSQGFVQSIMYSPRIVCFPF | < -0.25

Individual results from the results shown:
LLNSSRLCRE | growth estimate: < -0.25
PSQGFVQSIMYSPRIVCFPF | growth estimate: < -0.25
RDEC | growth estimate: < -0.25
VCVYATGEMTKY | growth estimate: < -0.25
NLLLFKRDPVQRKLRCG | growth estimate: < -0.25
AHICQMVAGWKSILSIVTYM | growth estimate: < -0.25

Carrying on:

Substance | growth estimate
HFLDIVVSVL | < -0.25
YMPIRRAWSAVIITLLGEEG | < -0.25
SLVQTWEALQTLERTWDLAR | -0.141
VILHEVRR | < -0.25
RDTKKECMAEVTGAAGR | < -0.25
THMSQALVQAPTDRYAFNAG | < -0.25
GRCG | < -0.25
ATLRYASPFFRVPCIHLVNL | -0.243
SGLTRDEVRLYYALTAVSLT | < -0.25
GGSRRHSYIFRYVRMRRKIV | < -0.25
TYCIS | < -0.25
ELPQYDRYGRKSLFSRGCRG | < -0.25
PPN | < -0.25
QYQRRQPNQSGGKGRHERTI | < -0.25
SGNRHTCQAALNRIVVWPLF | < -0.25
DNMSRWWIIRSIAARLCARA | < -0.25
FLAERFVYAPSM | < -0.25
RGSFSMPMRGPD | < -0.25
TEVGSRPLVGFTAHRSVSTV | < -0.25
PWRAVTRSSRHQLRRIGETR | < -0.25
CRITAMDGGTWELRYGIVSH | < -0.25
EFHSTW | < -0.25
AGAAPNGREPFPVHVSKYPT | < -0.25
VCTGLHCLGRNFQIAKRMHG | < -0.25
QDLLLDPQVQMRNVYCERRS | < -0.25

Substance | growth estimate
VRTCLST | < -0.25
ASKVALTKSFGIRTGPSHCW | < -0.25
EDLIVEDKRKGGILARTSAS | < -0.25
NGKVLRLIYFLVDRGHPSCR | < -0.25
WSVSSSS | < -0.25
QRRCSWRRRRFRGQGFKPV | < -0.25
IGSRRSCM | < -0.25
VRWVNTGLKDREKGGSGVGA | < -0.25
GLKPCRTPPHHSFNGQTSTR | 0.0206
TTETVDREFDYLPTVLYGPG | < -0.25
VATWDR | < -0.25
DNATFWSLDW | -0.25
LSFLTGSNIQPRFPTGVCT | < -0.25
PPMTVNKPYARENEIRPCQD | < -0.25
NDKAYACSSAHRVVFTVEPP | < -0.25
QGKRARMLSSTEHPARMAYI | < -0.25
GPPGLRRLLLYDPTWRTHPH | < -0.25
PQKPTPRAILLSLLPYSTYG | < -0.25
GSPVRSVEIREMIIELRPTH | < -0.25
VQRKAYYGDPVYP | < -0.25
HLGRPLKFEFLLESCGAGRR | < -0.25
